In the supplement of paper PMC4604168 (melanoma cell lines):
The other results are listed elsewhere or left out. Repeats are few or missing, and single values can be far off.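 Imaging used 1,536-well plates; nuclei positive for cleaved PARP by antibody were divided by total DNA-stained nuclei to yield the apoptosis fraction. Doses for screening kept most cells viable, and cell lines differ markedly in resting and induced cleaved-PARP levels.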

Experiments:
Assay in all cases: cleaved PARP positive nuclei fraction relative to DMSO control; melanoma cells; higher = more apoptosis
Details in all cases: library dose: low library concentration; 72 h
501Mel = test system: 501Mel
A101D = test system: A101D
A2058 = test system: A2058
A375 = test system: A375
C32 = test system: C32
CBRC008 = test system: CBRC008 (line from a melanoma biopsy)
CBRC014 = test system: CBRC014 (line from a melanoma biopsy)
CBRC016 = test system: CBRC016 (line from a melanoma biopsy)
CBRC017 = test system: CBRC017 (line from a melanoma biopsy)

| SMILES | cleaved PARP positive nuclei fraction (501Mel) | cleaved PARP positive nuclei fraction (A101D) | cleaved PARP positive nuclei fraction (A2058) | cleaved PARP positive nuclei fraction (A375) | cleaved PARP positive nuclei fraction (C32) | cleaved PARP positive nuclei fraction (CBRC008) | cleaved PARP positive nuclei fraction (CBRC014) | cleaved PARP positive nuclei fraction (CBRC016) | cleaved PARP positive nuclei fraction (CBRC017) |
| --- | --- | --- | --- | --- | --- | --- | --- | --- | --- |
| Cn1cc(C2=C(c3cn(C4CCN(Cc5ccccn5)CC4)c4ccccc34)C(=O)NC2=O)c2ccccc21 [Enzastaurin] + Cn1c(=O)n(-c2ccc(C(C)(C)C#N)cc2)c2c3cc(-c4cnc5ccccc5c4)ccc3ncc21 [NVP-BEZ235] (first compound 0.8 µM, partner dose 0.004 µM) | 96% | 197% | 49.9% | 80.2% | 68.7% | 142% | 109% | 128% | 99.8% |
| CC[C@]1(O)C[C@H]2CN(CCc3c([nH]c4ccccc34)[C@@](C(=O)OC)(c3cc4c(cc3OC)N(C=O)[C@H]3[C@@](O)(C(=O)OC)[C@H](OC(C)=O)[C@]5(CC)C=CCN6CC[C@]43[C@@H]65)C2)C1 [vincristine] + C[As](C)SC[C@H](NC(=O)CC[C@H](N)C(=O)O)C(=O)NCC(=O)O [Darinaparsin] (first compound 0.0001 µM, partner dose 0.4 µM) | 144% | 170% | 1480% | 337% | 231% | 202% | 105% | 73.4% | 134% |
| Cn1cc(C2=C(c3cn(C4CCN(Cc5ccccn5)CC4)c4ccccc34)C(=O)NC2=O)c2ccccc21 [Enzastaurin] + C[As](C)SC[C@H](NC(=O)CC[C@H](N)C(=O)O)C(=O)NCC(=O)O [Darinaparsin] (first compound 0.8 µM, partner dose 0.4 µM) | 103% | 60.3% | 144% | 152% | 66% | 192% | 86.6% | 67.8% | 106% |
| N.N.[Cl][Pt][Cl] [cisplatin] + C#Cc1cccc(Nc2ncnc3cc(OCCOC)c(OCCOC)cc23)c1 [erlotinib] (first compound 1.6 µM, partner dose 0.8 µM) | 47.6% | 112% | 65.3% | 130% | 165% | 185% | 129% | 380% | 132% |
| C[C@@H](N)c1ccc(C(=O)Nc2ccnc3[nH]ccc23)cc1 + C[C@]12O[C@H](C[C@]1(O)CO)n1c3ccccc3c3c4c(c5c6ccccc6n2c5c31)CNC4=O [Lestaurtinib] (first compound 0.4 µM, partner dose 0.004 µM) | 73.3% | 147% | 163% | 92.9% | 92.1% | 155% | 116% | 102% | 98.6% |
| Cc1cc(Nc2cc(N3CCN(C)CC3)nc(/C=C/c3ccccc3)n2)n[nH]1 + N.N.[Cl][Pt][Cl] [cisplatin] (first compound 0.04 µM, partner dose 1.6 µM) | 137% | 24.9% | 116% | 105% | 92.7% | 88.5% | 100% | 128% | 129% |
| CCN(CC)CCNC(=O)c1c(C)[nH]c(/C=C2\C(=O)Nc3ccc(F)cc32)c1C [sunitinib] + N.N.[Cl][Pt][Cl] [cisplatin] (first compound 0.4 µM, partner dose 1.6 µM) | 132% | 173% | 108% | 206% | 77.6% | 60.5% | 110% | 75.8% | 113% |
| Cn1cc(C2=C(c3cn(C4CCN(Cc5ccccn5)CC4)c4ccccc34)C(=O)NC2=O)c2ccccc21 [Enzastaurin] + COc1ccc(C2=N[C@@H](c3ccc(Cl)cc3)[C@@H](c3ccc(Cl)cc3)N2C(=O)N2CCNC(=O)C2)c(OC(C)C)c1 [Nutlin-3] (first compound 0.8 µM, partner dose 0.1 µM) | 57.7% | 96.9% | 105% | 52.2% | 76.5% | 136% | 105% | 155% | 125% |
| Cn1c(=O)n(-c2ccc(C(C)(C)C#N)cc2)c2c3cc(-c4cnc5ccccc5c4)ccc3ncc21 + C[As](C)SC[C@H](NC(=O)CC[C@H](N)C(=O)O)C(=O)NCC(=O)O [Darinaparsin] (first compound 0.004 µM, partner dose 0.4 µM) | 133% | 156% | 85.4% | 103% | 79.9% | 101% | 81.7% | 88.7% | 96.6% |
| NC1(c2ccc(-c3nc4ccn5c(=O)[nH]nc5c4cc3-c3ccccc3)cc2)CCC1 + C[As](C)SC[C@H](NC(=O)CC[C@H](N)C(=O)O)C(=O)NCC(=O)O [Darinaparsin] (first compound 0.4 µM, partner dose 0.4 µM) | 114% | 236% | 117% | 181% | 87.5% | 115% | 96% | 110% | 108% |
